# Data reported in the supplement of paper PMC7238544.
# Where a name gives a salt, the structure may show the parent alone. ± gives the standard deviation of the averaged measurements. This is one part of the list. The data scatter; read single values as rough.
# Legend:
# hAMSC donor 1 [1] = assay: Hoechst total cell count ratio vs vehicle control; higher = more cells (less toxicity)
# hAMSC donor 2 [2] = assay: as above
# hAMSC donor 1 [3] = assay: transgenic luciferase activity (RLU/mg protein) fold change vs vehicle control (ratio); higher = more transgene expression
# hAMSC donor 1 [4] = assay: transfection efficiency (EGFP+ cells / Hoechst count) fold change vs vehicle control (ratio); hAMSC are human adipose-derived mesenchymal stem cells given an EGFP-luciferase plasmid by lipofection; higher = enhanced transfection
# hAMSC donor 2 [5] = assay: as above
# [6] = priming compound concentration 0.2 µM
# [7] = priming compound concentration 1.7 µM
# [8] = priming compound concentration 13 µM
Compound,Hoechst total cell count ratio (hAMSC donor 1 [1]; [6]),Hoechst total cell count ratio (hAMSC donor 1 [1]; [7]),Hoechst total cell count ratio (hAMSC donor 1 [1]; [8]),Hoechst total cell count ratio (hAMSC donor 2 [2]; [6]),Hoechst total cell count ratio (hAMSC donor 2 [2]; [7]),Hoechst total cell count ratio (hAMSC donor 2 [2]; [8]),transgenic luciferase activity (hAMSC donor 1 [3]; [8]),transfection efficiency (hAMSC donor 1 [4]; [6]),transfection efficiency (hAMSC donor 1 [4]; [7]),transfection efficiency (hAMSC donor 1 [4]; [8]),transfection efficiency (hAMSC donor 2 [5]; [6]),transfection efficiency (hAMSC donor 2 [5]; [7]),transfection efficiency (hAMSC donor 2 [5]; [8]),transgenic luciferase activity (hAMSC donor 1 [3]; [7])
COc1cc2nc(N(C)CCCNC(=O)C3CCCO3)nc(N)c2cc1OC (stereo not given) [Alfuzosin],1.33 ± 0.1,1.15 ± 0.12,1.17 ± 0.13,1.03 ± 0.13,1.17 ± 0.094,1.29 ± 0.14,1.16 ± 0.96,1.06 ± 0.18,1.01 ± 0.059,1.22 ± 0.28,1.42 ± 0.31,1.33 ± 0.21,0.851 ± 0.14,
NNC(=O)c1ccncc1 [Isoniazid],1.31 ± 0.075,1.13 ± 0.088,1.28 ± 0.09,1.03 ± 0.17,1.07 ± 0.035,0.959 ± 0.15,,1.26 ± 0.3,0.913 ± 0.12,1.07 ± 0.48,1.19 ± 0.065,1.23 ± 0.069,1.19 ± 0.31,0.276 ± 0.091
COc1cc(C(=O)NS(=O)(=O)c2ccccc2C)ccc1Cc1cn(C)c2ccc(NC(=O)OC3CCCC3)cc12 [Zafirlukast],1.48 ± 0.18,1.06 ± 0.072,1.29 ± 0.075,1.24 ± 0.18,1.37 ± 0.052,1.4 ± 0.21,1.28 ± 1.1,1.13 ± 0.2,1.32 ± 0.16,1 ± 0.32,1.21 ± 0.24,0.945 ± 0.18,0.809 ± 0.16,
C[C@H]1C[C@H]2[C@@H]3CCC4=CC(=O)C=C[C@]4(C)[C@@]3(Cl)[C@@H](O)C[C@]2(C)[C@@]1(O)C(=O)CO [Beclomethasone],1.35 ± 0.24,1.42 ± 0.23,1.29 ± 0.12,1.4 ± 0.16,1.45 ± 0.14,1.39 ± 0.32,6.78 ± 0.88,1.16 ± 0.42,1.53 ± 0.43,1.69 ± 0.43,1.18 ± 0.44,1.22 ± 0.38,1.31 ± 0.36,
CN(CCOc1ccc(NS(C)(=O)=O)cc1)CCc1ccc(NS(C)(=O)=O)cc1 [Dofetilide],1.37 ± 0.12,1.21 ± 0.082,1.16 ± 0.16,0.794 ± 0.33,1.12 ± 0.097,1.06 ± 0.11,0.68 ± 0.1,0.763 ± 0.13,1.1 ± 0.34,0.844 ± 0.33,1.36 ± 0.33,1.06 ± 0.18,1.02 ± 0.13,
CN(C)CC/C=C1/c2ccccc2COc2ccc(CC(=O)O)cc21 [Olopatadine hydrochloride],1.36 ± 0.27,1.18 ± 0.093,1.06 ± 0.17,0.961 ± 0.34,1.36 ± 0.11,1.37 ± 0.071,1.18 ± 0.22,1.07 ± 0.28,1.04 ± 0.39,1.45 ± 0.51,1.28 ± 0.57,1.13 ± 0.15,0.799 ± 0.1,
CSc1nc2cc(Cl)c(Oc3cccc(Cl)c3Cl)cc2[nH]1 [Triclabendazole],1.18 ± 0.28,1.05 ± 0.056,1.11 ± 0.14,0.954 ± 0.1,1.25 ± 0.12,1.31 ± 0.11,0.961 ± 0.5,1.15 ± 0.36,1.31 ± 0.054,0.662 ± 0.21,1.44 ± 0.3,1.02 ± 0.19,0.924 ± 0.11,
CS(=O)(=O)c1ccc(-c2cc(Br)sc2-c2ccc(F)cc2)cc1,1.36 ± 0.21,1.16 ± 0.33,1.12 ± 0.089,1.2 ± 0.27,1.26 ± 0.088,1.27 ± 0.098,0.641 ± 0.24,1.02 ± 0.082,0.949 ± 0.31,1.18 ± 0.17,0.891 ± 0.012,0.831 ± 0.12,0.981 ± 0.076,
CC(C)[C@H]1CC[C@H](C(=O)N[C@H](Cc2ccccc2)C(=O)O)CC1 [Nateglinide],1.38 ± 0.2,1.28 ± 0.11,1.2 ± 0.1,1.11 ± 0.58,1.07 ± 0.25,0.865 ± 0.12,,1.32 ± 0.15,0.821 ± 0.071,1.12 ± 0.28,1.04 ± 0.48,1.37 ± 0.19,1.27 ± 0.055,0.861 ± 0.2
C[C@@H](O)[C@H]1C(=O)N2C(C(=O)O)=C(S[C@@H]3CN[C@H](C(=O)N(C)C)C3)[C@H](C)[C@H]12 [Meropenem],1.21 ± 0.21,1.23 ± 0.11,1.23 ± 0.097,1.27 ± 0.07,1.28 ± 0.06,1.46 ± 0.068,0.51 ± 0.22,1.14 ± 0.13,1.13 ± 0.47,1.09 ± 0.21,0.95 ± 0.17,0.971 ± 0.086,1.04 ± 0.12,
CC1=C(C(=O)O)N2C(=O)[C@@H](NC(=O)[C@H](N)c3ccccc3)[C@H]2SC1 [Cephalexin hydrate],1.56 ± 0.14,1.4 ± 0.063,1.12 ± 0.1,1.21 ± 0.073,1.15 ± 0.16,1.25 ± 0.15,0.707 ± 0.37,1.01 ± 0.17,0.976 ± 0.14,1.47 ± 0.23,1.15 ± 0.1,1.09 ± 0.3,0.875 ± 0.19,
Cc1c(OCC(F)(F)F)ccnc1C[S+]([O-])c1nc2ccccc2[nH]1 (stereo not given) [Lansoprazole],1.52 ± 0.24,1.54 ± 0.078,1.3 ± 0.18,1.14 ± 0.084,1.15 ± 0.25,1.28 ± 0.32,0.586 ± 0.45,0.974 ± 0.2,0.894 ± 0.13,1.21 ± 0.2,1.04 ± 0.099,1.1 ± 0.16,1.25 ± 0.37,
CNNCc1ccc(C(=O)NC(C)C)cc1 [Procarbazine hydrochloride],1.32 ± 0.18,1.16 ± 0.078,1.257 ± 0.0098,1.28 ± 0.037,1.28 ± 0.19,1.16 ± 0.086,0.636 ± 0.33,1.34 ± 0.47,1.04 ± 0.16,0.862 ± 0.19,1.01 ± 0.18,1.08 ± 0.18,1.29 ± 0.24,
NC(=O)N1c2ccccc2CC(=O)c2ccccc21 [Oxcarbazepine],1.36 ± 0.057,1.11 ± 0.095,1.28 ± 0.12,1.04 ± 0.068,1.49 ± 0.083,1.16 ± 0.16,0.508 ± 0.27,1.05 ± 0.2,1.59 ± 0.16,0.95 ± 0.28,1.34 ± 0.54,0.857 ± 0.14,0.765 ± 0.13,
CNC(=C[N+](=O)[O-])NCCSCc1csc(CN(C)C)n1 [Nizatidine],1.37 ± 0.088,1.53 ± 0.08,1.33 ± 0.2,1.01 ± 0.21,0.944 ± 0.19,1.12 ± 0.45,0.729 ± 0.11,1.02 ± 0.071,1.09 ± 0.17,0.887 ± 0.17,1.15 ± 0.42,1.58 ± 0.23,0.886 ± 0.21,

# An excerpt from above, reduced to transfection efficiency (hAMSC donor 2 [5]; [8]):
Compound | transfection efficiency (hAMSC donor 2 [5]; [8])
NNC(=O)c1ccncc1 [Isoniazid] | 1.19 ± 0.31
COc1cc(C(=O)NS(=O)(=O)c2ccccc2C)ccc1Cc1cn(C)c2ccc(NC(=O)OC3CCCC3)cc12 [Zafirlukast] | 0.809 ± 0.16
